Measured values: patent US20210340217A1, “NOVEL PEPTIDES AND COMBINATION OF PEPTIDES FOR USE IN IMMUNOTHERAPY AGAINST OVARIAN CANCER AND OTHER CANCERS” (Immatics Biotechnologies GmbH, priority 2017, published 2021)

Tested on: ovarian cancer tissue samples
Test: Identification of tumor associated peptides presented on the cell surface (HLA immunoprecipitation, LC-MS); presentation across tumor types
Design: species or system human
Conditions: tumor types on which the peptide was found presented (HLA immunoprecipitation, LC-MS); abbreviations in table footnote

| Substance | Peptide Presentation on tumor types |
| --- | --- |
| 65 (TMFLRETSL; listed as Homo sapiens) [compound 65] | MEL, NHL, NSCLC, PRCA, SCLC |
| 385 (SPALHIGSV; listed as Homo sapiens) [compound 385] | BRCA, GBM, HCC, NSCLC, PRCA, SCLC, UBC, UEC |
| 7 (ALQAFEFRV; listed as Homo sapiens) [compound 7] | GC, GEJC, HNSCC, NSCLC, PACA, SCLC, UBC |
| 251 (KQRQVLIFF; listed as Homo sapiens) [compound 251] | GBM, NSCLC, OSCAR, PACA, RCC |
| 296 (YPLRGSSI; listed as Homo sapiens) [compound 296] | UEC |
| 314 (VPDQPHPEI; listed as Homo sapiens) [compound 314] | PACA |
| 78 (SFAPRSAVF; listed as Homo sapiens) [compound 78] | SCLC |
| 332 (FPHSEMTTL; listed as Homo sapiens) [compound 332] | NSCLC, PACA |
| 21 (AVRKPIVLK; listed as Homo sapiens) [compound 21] | AML, BRCA, CCC, CRC, GBC, GBM, GC, HCC, HNSCC, MEL, NHL, NSCLC, OSCAR, PACA, RCC, SCLC, UBC, UEC |
| 480 (GRADIMIDF; listed as Homo sapiens) [compound 480] | BRCA, CRC, HNSCC, MEL, NSCLC, OSCAR, SCLC, UEC |
| 182 (KEATEAQSL; listed as Homo sapiens) [compound 182] | NSCLC |
| 537 (IRRLKELKDQ; listed as Homo sapiens) [compound 537] | NSCLC |
| 99 (KVVDRWNEK; listed as Homo sapiens) [compound 99] | CRC, NHL, RCC |
| 355 (SPLVTSHIM; listed as Homo sapiens) [compound 355] | UEC |
| 157 (EAMKRLSYI; listed as Homo sapiens) [compound 157] | CCC, HNSCC, PACA |
| 289 (RWEKTDLTY; listed as Homo sapiens) [compound 289] | CRC, UEC |
| 617 (VAEVQKLLGPHVEGL; listed as Homo sapiens) [compound 617] | NSCLC |
| 408 (LEKALQVF; listed as Homo sapiens) [compound 408] | CRC, GC, HNSCC, OSCAR, UEC |
| 520 (THSAMTHGF; listed as Homo sapiens) [compound 520] | NHL |
| 410 (SEDPSKLEA; listed as Homo sapiens) [compound 410] | BRCA, HNSCC, NSCLC, OSCAR, SCLC, UEC |
| 682 (GVRGSLLSEADVRALGGL; listed as Homo sapiens) [compound 682] | NSCLC |
| 22 (SLKERNPLK; listed as Homo sapiens) [compound 22] | NSCLC |
| 262 (RSRLNPLVQR; listed as Homo sapiens) [compound 262] | HNSCC, NSCLC |
| 417 (AEHFSMIRA; listed as Homo sapiens) [compound 417] | AML, BRCA, CRC, GBM, GC, HNSCC, NHL, NSCLC, OSCAR, PACA, PRCA, RCC, UEC |
| 11 (SYSDLHYGF; listed as Homo sapiens) [compound 11] | GC, NSCLC, UEC |

| Substance | Peptide Presentation on tumor types |
| --- | --- |
| 3 (ALIYNLVGI; listed as Homo sapiens) [compound 3] | HCC |
| 436 (REPGDIFSEL; listed as Homo sapiens) [compound 436] | CRC |
| 79 (SYNEHWNYL; listed as Homo sapiens) [compound 79] | BRCA, CCC, CRC, GBC, GC, HCC, HNSCC, MEL, NHL, NSCLC, OSCAR, PACA, PRCA, RCC, SCLC, UBC, UEC |
| 2 (TLLKALLEI; listed as Homo sapiens) [compound 2] | BRCA, CCC, CRC, GBC, GC, HNSCC, MEL, NHL, NSCLC, OSCAR, PACA, PRCA, RCC, SCLC, UEC |
| 148 (KPYGGSGPL; listed as Homo sapiens) [compound 148] | AML, BRCA, NHL, RCC |
| 431 (AEQDPDELNKA; listed as Homo sapiens) [compound 431] | CRC, OSCAR, SCLC, UEC |
| 149 (GPREALSRL; listed as Homo sapiens) [compound 149] | AML, BRCA, CCC, CRC, HCC, MEL, NHL, NSCLC, OSCAR, PACA, PRCA, RCC, SCLC, UEC |
| 619 (VAEVQKLLGPHVE; listed as Homo sapiens) [compound 619] | NSCLC |
| 133 (MPNLPSTTSL; listed as Homo sapiens) [compound 133] | UEC |
| 31 (LLDEGAMLLY; listed as Homo sapiens) [compound 31] | GBC, HNSCC, NSCLC, SCLC, UBC |
| 563 (PNFSGNWKIIRSENFEEL; listed as Homo sapiens) [compound 563] | NSCLC |
| 661 (LRGLLPVLGQPIIRSIPQG; listed as Homo sapiens) [compound 661] | NSCLC |
| 589 (APDAKSFVLNLGKDSNNL; listed as Homo sapiens) [compound 589] | NSCLC |
| 614 (TVAEVQKLLGPHVEGL; listed as Homo sapiens) [compound 614] | NSCLC |
| 19 (KYVKVFHQF; listed as Homo sapiens) [compound 19] | AML, BRCA, CLL, CRC, GBC, GBM, GC, HCC, MEL, NHL, NSCLC, OSCAR, PACA, PRCA, RCC, SCLC, UBC, UEC |
| 283 (IVQEPTEEK; listed as Homo sapiens) [compound 283] | HCC, NHL, NSCLC |
| 141 (SPMTSLLTSGL; listed as Homo sapiens) [compound 141] | UEC |
| 4 (ALFKAWAL; listed as Homo sapiens) [compound 4] | AML, BRCA, CLL, CRC, GBC, GC, HCC, HNSCC, MEL, NHL, NSCLC, OSCAR, RCC, SCLC, UBC, UEC |
| 485 (VRFPVHAAL; listed as Homo sapiens) [compound 485] | MEL, NSCLC, OSCAR |
| 25 (GTSPPSVEK; listed as Homo sapiens) [compound 25] | UEC |
| 324 (VPYRVVGL; listed as Homo sapiens) [compound 324] | CLL, CRC, GC, MEL, NHL, NSCLC, PRCA, SCLC |
| 277 (TTALKTTSR; listed as Homo sapiens) [compound 277] | NSCLC |
| 178 (NELFRDGVNW; listed as Homo sapiens) [compound 178] | AML, BRCA, CCC, CLL, CRC, HCC, HNSCC, MEL, NHL, NSCLC, OSCAR, PACA, PRCA, SCLC, UBC, UEC |
| 146 (IPRPEVQAL; listed as Homo sapiens) [compound 146] | AML, CRC, GC, HNSCC, MEL |
| 257 (VTADHSHVF; listed as Homo sapiens) [compound 257] | UEC |

| Substance | Peptide Presentation on tumor types |
| --- | --- |
| 620 (EVQKLLGPHVEG; listed as Homo sapiens) [compound 620] | NSCLC |
| 680 (GVRGSLLSEADVRALGGLA; listed as Homo sapiens) [compound 680] | NSCLC |
| 508 (TVAKTTTTF; listed as Homo sapiens) [compound 508] | UEC |
| 243 (YASEGVKQV; listed as Homo sapiens) [compound 243] | UEC |
| 18 (KYPVHIYRL; listed as Homo sapiens) [compound 18] | AML, BRCA, GBC, GC, HNSCC, MEL, NHL, NSCLC, OSCAR, PACA, RCC, UBC, UEC |
| 495 (EVPSGATTEVSR; listed as Homo sapiens) [compound 495] | UEC |
| 730 (LPGRFVAESAEVL; listed as Homo sapiens) [compound 730] | NSCLC |
| 34 (LPRGPLASLL; listed as Homo sapiens) [compound 34] | HNSCC, NSCLC, OSCAR, PACA, SCLC |
| 28 (KTYETNLEIKK; listed as Homo sapiens) [compound 28] | NSCLC, UBC |
| 59 (SENVTMKVV; listed as Homo sapiens) [compound 59] | UEC |
| 371 (LYVDGFTHW; listed as Homo sapiens) [compound 371] | NSCLC, UEC |
| 550 (RRFKEPWFL; listed as Homo sapiens) [compound 550] | BRCA, HCC, MEL, NSCLC, PRCA, SCLC, UBC, UEC |
| 420 (FESHSTVSA; listed as Homo sapiens) [compound 420] | UEC |
| 493 (DTNLEPVTR; listed as Homo sapiens) [compound 493] | UEC |
| 96 (TAFGGFLKY; listed as Homo sapiens) [compound 96] | OSCAR, RCC |
| 256 (RTEEVLLTFK; listed as Homo sapiens) [compound 256] | RCC, SCLC, UEC |
| 651 (LPVLGQPIIRSIPQGIVAA; listed as Homo sapiens) [compound 651] | NSCLC |
| 697 (GSLLSEADVRALG; listed as Homo sapiens) [compound 697] | NSCLC |
| 225 (SVFAHPRKL; listed as Homo sapiens) [compound 225] | BRCA, OSCAR |
| 442 (ILSKLTDIQY; listed as Homo sapiens) [compound 442] | BRCA, GBM, NHL, NSCLC |
| 403 (EEAQWVRKY; listed as Homo sapiens) [compound 403] | BRCA, CLL, NHL |
| 540 (AGIPAVALW; listed as Homo sapiens) [compound 540] | HCC, NSCLC, OSCAR |
| 456 (IPLERPLGEVY; listed as Homo sapiens) [compound 456] | BRCA, UEC |
| 629 (GLLPVLGQPIIRSIPQGIVA; listed as Homo sapiens) [compound 629] | NSCLC |
